We go through eleven targets from the supplement of paper PMC12819154, “High-throughput peptide-centric local stability assay extends protein–ligand identification to membrane proteins, tissues and bacteria” (Nature Structural & Molecular Biology, 2025).

By UniProt entry, the sequences of proteins in these tests, tags left out. Where a name states a change or a piece, a line headed by the entry shows the natural chain unless it says otherwise.
UniProt P32921: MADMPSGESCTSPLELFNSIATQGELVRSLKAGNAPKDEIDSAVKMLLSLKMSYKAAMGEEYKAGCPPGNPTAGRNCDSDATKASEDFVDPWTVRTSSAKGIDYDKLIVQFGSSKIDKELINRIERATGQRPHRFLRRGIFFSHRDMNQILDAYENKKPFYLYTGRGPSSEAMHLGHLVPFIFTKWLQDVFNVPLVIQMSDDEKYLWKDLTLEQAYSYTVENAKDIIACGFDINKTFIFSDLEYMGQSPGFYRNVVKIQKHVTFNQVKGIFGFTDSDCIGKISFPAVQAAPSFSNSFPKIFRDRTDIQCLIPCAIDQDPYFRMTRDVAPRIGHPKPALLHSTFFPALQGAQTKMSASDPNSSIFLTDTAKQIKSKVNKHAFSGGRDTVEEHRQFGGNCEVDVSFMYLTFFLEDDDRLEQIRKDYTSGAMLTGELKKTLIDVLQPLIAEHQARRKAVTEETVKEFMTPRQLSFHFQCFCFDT
UniProt P23589: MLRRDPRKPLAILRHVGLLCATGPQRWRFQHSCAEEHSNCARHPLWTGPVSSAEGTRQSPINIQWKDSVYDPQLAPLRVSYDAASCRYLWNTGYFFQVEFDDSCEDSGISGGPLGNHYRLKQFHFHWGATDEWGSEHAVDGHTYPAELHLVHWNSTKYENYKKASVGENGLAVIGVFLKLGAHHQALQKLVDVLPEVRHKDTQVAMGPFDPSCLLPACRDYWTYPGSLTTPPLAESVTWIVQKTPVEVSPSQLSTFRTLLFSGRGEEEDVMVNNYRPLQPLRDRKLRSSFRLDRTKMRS
UniProt P26231: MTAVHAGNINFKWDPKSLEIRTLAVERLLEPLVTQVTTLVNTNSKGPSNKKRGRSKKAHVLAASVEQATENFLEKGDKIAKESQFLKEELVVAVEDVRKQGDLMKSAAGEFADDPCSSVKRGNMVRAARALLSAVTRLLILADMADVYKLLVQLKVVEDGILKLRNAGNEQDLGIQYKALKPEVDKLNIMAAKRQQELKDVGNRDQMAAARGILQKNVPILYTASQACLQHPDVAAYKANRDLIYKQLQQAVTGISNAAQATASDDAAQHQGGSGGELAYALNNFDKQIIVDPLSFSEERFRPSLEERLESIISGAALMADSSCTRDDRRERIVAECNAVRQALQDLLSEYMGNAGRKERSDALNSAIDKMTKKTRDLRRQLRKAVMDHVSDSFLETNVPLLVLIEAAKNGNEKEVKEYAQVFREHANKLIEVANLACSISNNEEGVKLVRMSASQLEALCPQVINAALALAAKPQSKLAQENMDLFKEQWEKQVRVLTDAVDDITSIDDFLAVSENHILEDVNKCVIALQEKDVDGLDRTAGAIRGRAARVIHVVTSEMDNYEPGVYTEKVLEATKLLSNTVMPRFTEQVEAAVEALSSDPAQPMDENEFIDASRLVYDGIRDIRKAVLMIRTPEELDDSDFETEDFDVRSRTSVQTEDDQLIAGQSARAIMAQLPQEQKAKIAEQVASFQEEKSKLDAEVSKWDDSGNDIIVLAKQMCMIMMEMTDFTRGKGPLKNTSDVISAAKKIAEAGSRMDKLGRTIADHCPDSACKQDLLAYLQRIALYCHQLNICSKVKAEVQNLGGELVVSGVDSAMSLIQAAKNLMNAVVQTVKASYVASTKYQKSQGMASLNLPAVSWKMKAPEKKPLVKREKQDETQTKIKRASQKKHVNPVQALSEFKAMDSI
UniProt P17563: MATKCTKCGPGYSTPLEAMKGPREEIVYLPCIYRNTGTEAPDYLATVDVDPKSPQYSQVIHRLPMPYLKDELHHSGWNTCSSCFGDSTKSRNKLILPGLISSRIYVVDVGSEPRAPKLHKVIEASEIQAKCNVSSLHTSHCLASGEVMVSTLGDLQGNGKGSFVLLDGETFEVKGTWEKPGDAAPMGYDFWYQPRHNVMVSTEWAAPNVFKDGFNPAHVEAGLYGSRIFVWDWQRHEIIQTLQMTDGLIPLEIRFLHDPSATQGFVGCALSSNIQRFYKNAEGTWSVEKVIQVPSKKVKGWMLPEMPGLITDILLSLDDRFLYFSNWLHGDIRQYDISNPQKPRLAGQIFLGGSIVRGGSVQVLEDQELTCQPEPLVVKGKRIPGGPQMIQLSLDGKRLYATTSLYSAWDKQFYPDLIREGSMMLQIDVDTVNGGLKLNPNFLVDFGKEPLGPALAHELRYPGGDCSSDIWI
UniProt P24369: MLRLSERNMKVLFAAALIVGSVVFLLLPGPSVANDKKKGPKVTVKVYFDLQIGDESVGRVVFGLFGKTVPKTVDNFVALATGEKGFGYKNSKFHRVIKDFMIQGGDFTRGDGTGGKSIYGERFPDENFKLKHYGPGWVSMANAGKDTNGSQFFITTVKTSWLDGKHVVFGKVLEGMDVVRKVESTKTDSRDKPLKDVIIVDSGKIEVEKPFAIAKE
UniProt P24721: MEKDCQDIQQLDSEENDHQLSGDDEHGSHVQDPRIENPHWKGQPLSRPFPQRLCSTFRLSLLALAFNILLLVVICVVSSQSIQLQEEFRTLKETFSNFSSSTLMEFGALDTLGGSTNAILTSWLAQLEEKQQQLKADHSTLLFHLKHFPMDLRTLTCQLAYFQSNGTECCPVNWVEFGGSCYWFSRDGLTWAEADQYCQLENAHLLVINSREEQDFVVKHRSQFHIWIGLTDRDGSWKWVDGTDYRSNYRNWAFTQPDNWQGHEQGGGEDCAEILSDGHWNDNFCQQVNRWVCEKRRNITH
UniProt P27600: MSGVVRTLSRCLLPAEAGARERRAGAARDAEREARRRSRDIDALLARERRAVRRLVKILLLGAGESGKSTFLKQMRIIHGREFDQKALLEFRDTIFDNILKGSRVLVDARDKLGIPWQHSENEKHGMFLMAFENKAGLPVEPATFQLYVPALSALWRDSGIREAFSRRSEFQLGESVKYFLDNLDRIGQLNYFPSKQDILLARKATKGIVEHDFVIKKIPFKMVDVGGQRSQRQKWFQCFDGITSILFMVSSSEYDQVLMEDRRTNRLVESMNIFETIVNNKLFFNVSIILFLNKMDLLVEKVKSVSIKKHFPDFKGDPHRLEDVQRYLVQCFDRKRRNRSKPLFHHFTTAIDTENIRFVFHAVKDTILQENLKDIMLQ
UniProt P19639: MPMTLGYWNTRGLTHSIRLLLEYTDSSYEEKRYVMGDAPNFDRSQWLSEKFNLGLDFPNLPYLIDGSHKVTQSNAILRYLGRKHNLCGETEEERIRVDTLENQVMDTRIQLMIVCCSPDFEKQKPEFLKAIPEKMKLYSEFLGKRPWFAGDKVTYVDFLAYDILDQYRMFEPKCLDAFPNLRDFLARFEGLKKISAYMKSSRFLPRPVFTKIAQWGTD
UniProt P23611: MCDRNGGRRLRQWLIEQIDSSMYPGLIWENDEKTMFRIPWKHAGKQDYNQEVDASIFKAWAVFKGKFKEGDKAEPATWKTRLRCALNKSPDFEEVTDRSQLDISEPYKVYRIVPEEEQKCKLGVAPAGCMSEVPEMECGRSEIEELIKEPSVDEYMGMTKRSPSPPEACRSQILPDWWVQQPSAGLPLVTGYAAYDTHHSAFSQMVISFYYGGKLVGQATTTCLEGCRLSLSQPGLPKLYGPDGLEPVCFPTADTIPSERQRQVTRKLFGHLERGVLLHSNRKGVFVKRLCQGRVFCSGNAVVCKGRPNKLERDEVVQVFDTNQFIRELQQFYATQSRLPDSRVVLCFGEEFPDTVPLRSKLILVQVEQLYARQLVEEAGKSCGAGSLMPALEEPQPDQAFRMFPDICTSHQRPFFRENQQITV
UniProt P28651: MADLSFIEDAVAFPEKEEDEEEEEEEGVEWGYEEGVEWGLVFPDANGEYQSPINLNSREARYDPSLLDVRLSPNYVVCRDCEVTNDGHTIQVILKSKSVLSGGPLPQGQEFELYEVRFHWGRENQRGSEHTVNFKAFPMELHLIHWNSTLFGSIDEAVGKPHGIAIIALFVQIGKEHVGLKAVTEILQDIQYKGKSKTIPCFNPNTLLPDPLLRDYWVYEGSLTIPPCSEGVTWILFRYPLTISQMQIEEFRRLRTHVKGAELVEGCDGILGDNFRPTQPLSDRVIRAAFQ
UniProt P21300: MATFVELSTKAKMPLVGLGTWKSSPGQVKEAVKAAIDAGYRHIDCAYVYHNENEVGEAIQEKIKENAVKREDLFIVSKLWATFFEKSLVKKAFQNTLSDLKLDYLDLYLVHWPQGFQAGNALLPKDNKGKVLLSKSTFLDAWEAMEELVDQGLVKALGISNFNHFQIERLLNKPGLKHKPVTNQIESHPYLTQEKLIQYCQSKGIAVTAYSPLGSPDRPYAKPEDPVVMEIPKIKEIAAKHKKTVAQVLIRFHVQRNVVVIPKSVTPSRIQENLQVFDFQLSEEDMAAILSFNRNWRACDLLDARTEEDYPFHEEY

The list shows a part of the results. Most entries show no effect beyond the scatter of the controls.

Compound in the assay: CN[C@@H]1C[C@H]2O[C@@](C)([C@@H]1OC)n1c3ccccc3c3c4c(c5c6ccccc6n2c5c31)C(=O)NC4 [staurosporine]
Nature of the assay: log2 fold change of tryptic peptide abundance, ligand vs vehicle (limited proteolysis) (log2 ratio); higher = more trypsin-susceptible (destabilized). The note with it: ligand concentration: 20 uM; sample: mouse liver crude lysate; replicate design: treated separately.
In the case of “UniProt P32921 (peptide sequence: KDYTSGAMLTGELKK, peptide start residue: 422)”, the log2 fold change came out at 0.173.
For “UniProt P23589 (peptide sequence: HVGLLCATGPQR, peptide start residue: 15)” the value was 0.134.
For “UniProt P26231 (peptide sequence: ERSDALNSAIDKMTK, peptide start residue: 359)” the value was -0.462; for “UniProt P17563 (peptide sequence: VIEASEIQAK, peptide start residue: 121)”, 0.142; for “UniProt P24369 (peptide sequence: DKPLKDVIIVDSGK, peptide start residue: 191)”, -0.268.
For “UniProt P24721 (peptide sequence: WVDGTDYR, peptide start residue: 239)” the value was 0.104.
Regarding “UniProt P27600 (peptide sequence: YLVQCFDR, peptide start residue: 328)”, the log2 fold change was -0.49.
For “UniProt P19639 (peptide sequence: LLLEYTDSSYEEKR, peptide start residue: 19)” the value was -0.0616.
For “UniProt P23611 (peptide sequence: VFCSGNAVVCK, peptide start residue: 295)” the value was -0.215; for “UniProt P28651 (peptide sequence: GSEHTVNFK, peptide start residue: 127)”, 0.32; for “UniProt P21300 (peptide sequence: LLNKPGLK, peptide start residue: 170)”, -0.196.
